Consider one molecule from paper PMC13254257.

These are yes or no findings as the source states them, for the method shown. Binding seen in cells or lysates may run through a third protein. Where a sequence is shown, tags or fusion partners need not be part of it.

The test has as its target T1, TMEM65-V5 (transmembrane protein 65 with a V5 tag, endogenous knock-in) (mouse (endogenous in brain)), Q4VAE3.
T1 chain: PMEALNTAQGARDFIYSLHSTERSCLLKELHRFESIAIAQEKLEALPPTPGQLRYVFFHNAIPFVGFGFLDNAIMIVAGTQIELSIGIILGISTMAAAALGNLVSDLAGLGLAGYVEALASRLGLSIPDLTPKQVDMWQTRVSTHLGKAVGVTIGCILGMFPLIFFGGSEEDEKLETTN
In words: co-IP; anti-V5 antibody coupled to Dynabeads; brain lysates of homozygous (Tmem65+V5/+V5) or heterozygous (Tmem65+V5/+) TMEM65-V5 mice in 25 mM Tris-HCl pH 7.4, 150 mM NaCl, 1 mM EDTA, 1% NP-40, 1 mM PMSF, 5% glycerol; 4 °C, 30 min; elution with 0.1 M glycine pH 3.0; Western blot. The note with it: remark: other sources report otherwise. (A western blot detects proteins with antibodies after separation by electrophoresis.)

B1: NCLX (SLC8B1/SLC24A6), Q925Q3 27-585 (protein)
chain: TGDPSTKAHGHIQFSAGSVNQTAMADCRAVCGLNTSDRCDFVRRNPDCRSEAGYLDYLEGIFCYFPPNLLPLAITLYVFWLLYLFLILGVTAAKFFCPNLSAISTNLKLSHNVAGVTFLAFGNGAPDIFSALVAFSDPRTAGLAIGALFGAGVLVTTVVAGGITILHPFMAASRPFLRDIAFYMVAVFLTFTALYLGRITLTWALGYLGLYVFYVVTVIICTWVYQRQRSRSLVHSISETPELLSESEEDQMSSNTNSYDYGDEYRPLLLGRETTVQILIQALNPLDYRKWRTQSISWRVLKVVKLPVEFLLLLTVPVVDPDKDDRNWKRPLNCLQLVISPLVLVLTLQSGVYGIYEIGGLLPVWAVVVIVGTALASVTFFATSNREPPRLHWLFAFLGFLTSALWINAAATEVVNILRSLGVIFRLSNTVLGLTLLAWGNSIGDAFSDFTLARQGYPRMAFSACFGGIIFNILVGVGLGCLLQIIRNHVVEVKLEPDGLLVWVLASALGLSLIFSLVSVPLQCFQLSKAYGLCLLLFYICFLVVVLLTEFGVIHLKKA
On to B1, for which the binding result is listed as “no binding”.
